± gives the standard error. Many entries were measured with a wide error.
B1: glmS ribozyme (parent)
chain: AUAAAAGCGCCAGAACUACAGAAAUGUAGUUGACGAGGAGGAGGUUUAUCGAAUUUUCGGCGGAUGCCUCCAAA

Variants of: B1
Assay: KM; higher = weaker cofactor use; RNA array
Details: with glucosamine-6-phosphate
Method in brief: (§1)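 Tiles bearing barcoded ribozyme variants, transcribed in situ by E. coli RNA polymerase on sequenced MiSeq chips, were imaged over ~14 h at 37 °C using a hybridised Cy3 probe. Glucosamine-6-phosphate was supplied at 40 μM to 10 mM in HEPES/KCl/Mg(OAc)2 buffer. kobs came from one- or two-exponential decay fits to normalised per-tile medians, and weighted Michaelis–Menten fits then provided kcat and KM.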

Variant	KM [µM]
A6U U31G	1140 ± 620
C10G U46A	19.5 ± 12
A6U G29A	532 ± 350
C11U A14C	2630 ± 1500
G9A U31A	11500 ± 610
C10G A64G	90.7 ± 59
A6C U69A	94.9 ± 95
C10U C58U	1.81 ± 1.6
C10U U56C	1420 ± 710
C11G C50G	105 ± 59
C11A U49G U57G	82.1 ± 59
A12G G37U	155 ± 150
A12G A64G	2560 ± 1100
C8A C70A	559 ± 430
G7A U45C	50.4 ± 36
A6U U46C	2710 ± 290
A12C U46C	1680 ± 590
A6U G66A	3170 ± 600
A6U G66U	1280 ± 630
A12C G41A	1930 ± 1100
A12C A48C	3900 ± 2300
C11U U65G	2580 ± 1200
C10U C50G	51.5 ± 26
G9U C58G	44.8 ± 23
C10G A12U	26500 ± 14000

6 records picked at random from those above:
Variant	KM [µM]
C10U C50G	51.5 ± 26
G7A U45C	50.4 ± 36
A6C U69A	94.9 ± 95
A12C G41A	1930 ± 1100
A6U G66A	3170 ± 600
C10U C58U	1.81 ± 1.6

Reprinted from the entries so far (4 entries):
Variant	KM [µM]
A12C G41A	1930 ± 1100
A12C A48C	3900 ± 2300
C11U U65G	2580 ± 1200
C10U C50G	51.5 ± 26

Some of the entries so far, bar-delimited.
Variant | KM [µM]
C11G C50G | 105 ± 59
C8A C70A | 559 ± 430
A12C G41A | 1930 ± 1100

(list continues)

Variant	KM [µM]
G9A G37C	402 ± 370
A72C	735 ± 670
A12C C68U	1370 ± 220
A12G G32U	11700 ± 580
A64U U69C	1050 ± 310
C11U G40A	5980 ± 4500
C11U U55G	1700 ± 660
C11U U55A U56G	1530 ± 1100
C11A A52U C67G	122 ± 88
C11A G59U	2310 ± 700
A6C U47C	526 ± 77
U56G U57A	10500 ± 11000
G9U U47C	15.2 ± 15
C11U C16U C71U	1100 ± 540
G9A C71U	26400 ± 2900
C11A C67U	217 ± 130
A6C A12C U57G	381 ± 260
C11U U56C	2260 ± 1000
C10U U30C G59A G60A C70U	165 ± 84
C11U U46C	1740 ± 1400
A6U C67A	302 ± 250
C11U A14U C16G	12800 ± 4300
A6U A15G	12100 ± 5000
A12G G59C	671 ± 630
U2A G29U	2460 ± 1300

Variant	KM [µM]
G7C G37C	63.3 ± 33
C11U U47G	734 ± 380
A6C G59A	822 ± 510
C11A C16G	16900 ± 6000
A6C A53G	3110 ± 770
A12C G26U	281 ± 220
A6C A15C	13400 ± 1200
C10A A52G	315 ± 170
C11A A36U	573 ± 550
A12C C70G	572 ± 440
A12C U45A	1690 ± 110
A12G C58G C67A	150 ± 140
C11U C16G	2850 ± 410
U69G	535 ± 470
A12C U54A	863 ± 530
A12C U54G	2520 ± 1400
A6G A53U	1940 ± 560
C11U U54G	1420 ± 1000
A6C C70U	1350 ± 110
A6C G13A A36U U56G	180 ± 90
A6C C50G C61G	74.7 ± 57
C11A A14G U65G	1370 ± 200
U65G C67A	10300 ± 8200
A12G G41C	11300 ± 2800
A12G A15G C70A	2120 ± 890

Variant	KM [µM]
A12C U54G G66U	3400 ± 2200
C11A U47A	2210 ± 1300
C10U C67U	2340 ± 1900
A6C C16U	13300 ± 5100
C10U G35A	118 ± 97
A6C C71A	205 ± 38
C10G U47G G60C	1460 ± 1000
C11U A14C C70U	879 ± 860
C10U G32A	156 ± 86
C10G A12G A53C G59C	7470 ± 4800
C8G G37U	3520 ± 1900
G7A A15G U54G	22900 ± 13000
U55G C70A	148 ± 85
A12C C67G	1210 ± 660
A12C U56G	3360 ± 910
C11U G37C U57A	257 ± 190
C11U G29U	3980 ± 2700
G9A A12C	25.4 ± 23
C10U G66U	17.6 ± 14
A12C U47C	1840 ± 380
A6U C10G	41.9 ± 39
C10A G32A	437 ± 230
C11A U55G	1740 ± 1400
C11A U55C	1650 ± 880
U56A C67U	457 ± 430

Variant	KM [µM]
A6U C61G	18.1 ± 17
A12C A42G	958 ± 630
A12C U30C C71U	3540 ± 1200
A12C G29C	2770 ± 820
G9U A33U	35.8 ± 24
C10U A36C	175 ± 95
A12G G29U C67G	2890 ± 2200
C11A G32U	15200 ± 12000
G9A C67A	1810 ± 1700
G7U U55A	29.5 ± 21
A6U U49A C71G	120 ± 99
G66A C70A	565 ± 560
A6U C71A	1730 ± 140
U56G C71U	839 ± 700
C11A A15C C70A	52.2 ± 33
A6U A36C G38A A52U	766 ± 630
A6U G13U	5530 ± 4000
A12G C67G	1850 ± 62
A12C A36U	56.2 ± 26
C10G C61G	86.8 ± 66
C11U A53U	2120 ± 1200
C8A G35U	155 ± 140
C68U U69C	2850 ± 730
A6C U55C	6150 ± 3900
A12C U57A	893 ± 750

Variants of: B1
Assay: self-cleavage kobs at 640 uM GlcN6P; higher = faster cleavage; RNA array
Details: with glucosamine-6-phosphate
Method in brief: as §1

Variant	self-cleavage kobs at 640 uM GlcN6P [s⁻¹]
A6U U31G	2.17e-05 ± 1.6e-05
A12G G59C	2.8e-05 ± 1.7e-05
C61G C68G	2.55e-05 ± 1.4e-05
A6C C16U	1.79e-05 ± 1.4e-05
C10U G32A	2.48e-05 ± 1.6e-05
A6U U49A C71G	3.2e-05 ± 2.3e-05
C11A A15C C70A	4.33e-05 ± 3.7e-05
A6C U55C	2.74e-05 ± 1.7e-05

Variants of: B1
Assay: self-cleavage kobs at 40 uM GlcN6P; higher = faster cleavage; RNA array
Details: with glucosamine-6-phosphate
Method in brief: as §1

Variant	self-cleavage kobs at 40 uM GlcN6P [s⁻¹]
C11U A14C	1.41e-05 ± 1.1e-05
A12C C68U	1.22e-05 ± 9.3e-06
C61G C70G C71G	2.95e-05 ± 2.1e-05
U55G U69G	2.63e-05 ± 2.5e-05
A12C C70G	1.81e-05 ± 1.1e-05
C11U G29U	2.48e-05 ± 1.3e-05
C11U A53U	1.85e-05 ± 1.2e-05

Variants of: B1
Assay: kcat; higher = faster cleavage; RNA array
Details: with glucosamine-6-phosphate
Method in brief: as §1

Variant	kcat [s⁻¹]
G62A C71G	1.44e-05 ± 2.8e-06
C61G U69C C70G	5.75e-05 ± 1.9e-05
G59C C68G	2.78e-05 ± 1e-05
G60A C67A	1.38e-05 ± 8.1e-06
U57C G62A C67U C68G	1.22e-05 ± 7.5e-06
U57G C71U	6.07e-05 ± 3e-05
A72C	0.00605 ± 0.0029
C58A U69A	5.48e-05 ± 2.9e-05
A64U U69C	5.01e-05 ± 2.7e-06
U56G U57G	< 1e-05
U56G U57A	0.000613 ± 0.00046
C61G A64C	1.15e-05 ± 5.8e-06
C61G C70G C71G	5.21e-05 ± 2.7e-05
U57G C67G	3e-05 ± 1.6e-05
U55G U69G	7.83e-05 ± 1.5e-05
U56A C70U	0.0154 ± 0.013
U69G	0.000255 ± 0.00017
U65G C67A	0.00816 ± 0.0055
U55G C68U	0.000455 ± 0.00026
C61G C68G	2.26e-05 ± 1.5e-05
U55G C70A	0.000145 ± 2.6e-05
C61U U69A	4.43e-05 ± 1.5e-05
U56A C67U	0.00186 ± 0.0011
G66A C70A	0.000648 ± 0.00034
U56G C71U	0.00545 ± 0.0029
C68U U69C	8.69e-05 ± 6.8e-06
C58G C68A	3.28e-05 ± 2.5e-05
G59U U69C	3.57e-05 ± 2.8e-05
G63C U69G	3.25e-05 ± 1.9e-05

Variants of: B1
Assay: self-cleavage kobs at 2500 uM GlcN6P; higher = faster cleavage; RNA array
Details: with glucosamine-6-phosphate
Method in brief: as §1

Variant	self-cleavage kobs at 2500 uM GlcN6P [s⁻¹]
G59C C68G	3.38e-05 ± 2.1e-05
C11U U65G	0.000107 ± 5.5e-05
A64U U69C	3.85e-05 ± 2.2e-05
C11A A52U C67G	2.95e-05 ± 2.6e-05
U57G C67G	4.17e-05 ± 2.1e-05
C11A C16G	2.09e-05 ± 1.9e-05
A6C C71A	2.17e-05 ± 1.5e-05
A12G G29U C67G	4.42e-05 ± 2.3e-05
C11A A15C C70A	3.54e-05 ± 2.7e-05
C58G C68A	2.56e-05 ± 1.9e-05
G63C U69G	2.68e-05 ± 2e-05

Variants of: B1
Assay: self-cleavage kobs at 10000 uM GlcN6P; higher = faster cleavage; RNA array
Details: with glucosamine-6-phosphate
Method in brief: as §1

Variant	self-cleavage kobs at 10000 uM GlcN6P [s⁻¹]
C10U U56C	1.79e-05 ± 1.7e-05
A6U U46C	1.89e-05 ± 1.1e-05
C10G A12U	2.24e-05 ± 1.3e-05
G9A C71U	1.57e-05 ± 1.6e-05
C61G C70G C71G	3e-05 ± 1.7e-05
C11A G32U	2.07e-05 ± 1.1e-05
G59U U69C	2.65e-05 ± 1.5e-05

Variants of: B1
Assay: self-cleavage kobs at 160 uM GlcN6P; higher = faster cleavage; RNA array
Details: with glucosamine-6-phosphate
Method in brief: as §1

Variant	self-cleavage kobs at 160 uM GlcN6P [s⁻¹]
U56G U57A	2.64e-05 ± 2.1e-05
C11U U56C	1.94e-05 ± 1.7e-05
U57G C67G	6.68e-05 ± 3.4e-05
A6U A15G	2.92e-05 ± 2.7e-05
C11U U47G	2.51e-05 ± 1.6e-05
A12G C58G C67A	4.54e-05 ± 2.9e-05
C11U C16G	2.31e-05 ± 1.3e-05
C11U A14C C70U	2.63e-05 ± 1.6e-05
A6U U49A C71G	1.89e-05 ± 1.9e-05

Reference: the supplement of paper PMC7125110
